From PMC5811984
These are yes or no findings as the source states them, for the method shown. Binding seen in cells or lysates may run through a third protein. Some results given as binding are weak or reduced against the parent protein; the word gives no strength. For some of these results: Tags and fused reporters may be left off the sequences shown.

Chains of the proteins cited; added tags and fusions are not shown.
UniProt P61006: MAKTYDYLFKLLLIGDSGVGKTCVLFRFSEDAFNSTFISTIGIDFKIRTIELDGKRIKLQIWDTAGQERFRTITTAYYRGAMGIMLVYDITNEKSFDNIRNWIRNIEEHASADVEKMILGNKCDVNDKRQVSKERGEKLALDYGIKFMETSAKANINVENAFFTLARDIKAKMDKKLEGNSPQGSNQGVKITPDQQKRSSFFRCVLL
UniProt P62820: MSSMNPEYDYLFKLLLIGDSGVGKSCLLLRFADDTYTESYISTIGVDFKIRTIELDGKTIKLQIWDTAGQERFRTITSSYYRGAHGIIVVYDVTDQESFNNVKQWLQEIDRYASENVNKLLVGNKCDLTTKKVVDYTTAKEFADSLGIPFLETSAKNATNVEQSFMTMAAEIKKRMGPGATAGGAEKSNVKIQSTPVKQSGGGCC
UniProt Q15286: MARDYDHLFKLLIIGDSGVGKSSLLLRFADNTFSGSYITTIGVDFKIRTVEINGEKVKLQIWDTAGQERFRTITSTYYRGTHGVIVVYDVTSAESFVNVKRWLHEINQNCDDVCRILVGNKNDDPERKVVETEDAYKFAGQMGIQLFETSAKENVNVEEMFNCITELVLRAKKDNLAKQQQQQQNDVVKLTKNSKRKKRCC
UniProt Q5S007: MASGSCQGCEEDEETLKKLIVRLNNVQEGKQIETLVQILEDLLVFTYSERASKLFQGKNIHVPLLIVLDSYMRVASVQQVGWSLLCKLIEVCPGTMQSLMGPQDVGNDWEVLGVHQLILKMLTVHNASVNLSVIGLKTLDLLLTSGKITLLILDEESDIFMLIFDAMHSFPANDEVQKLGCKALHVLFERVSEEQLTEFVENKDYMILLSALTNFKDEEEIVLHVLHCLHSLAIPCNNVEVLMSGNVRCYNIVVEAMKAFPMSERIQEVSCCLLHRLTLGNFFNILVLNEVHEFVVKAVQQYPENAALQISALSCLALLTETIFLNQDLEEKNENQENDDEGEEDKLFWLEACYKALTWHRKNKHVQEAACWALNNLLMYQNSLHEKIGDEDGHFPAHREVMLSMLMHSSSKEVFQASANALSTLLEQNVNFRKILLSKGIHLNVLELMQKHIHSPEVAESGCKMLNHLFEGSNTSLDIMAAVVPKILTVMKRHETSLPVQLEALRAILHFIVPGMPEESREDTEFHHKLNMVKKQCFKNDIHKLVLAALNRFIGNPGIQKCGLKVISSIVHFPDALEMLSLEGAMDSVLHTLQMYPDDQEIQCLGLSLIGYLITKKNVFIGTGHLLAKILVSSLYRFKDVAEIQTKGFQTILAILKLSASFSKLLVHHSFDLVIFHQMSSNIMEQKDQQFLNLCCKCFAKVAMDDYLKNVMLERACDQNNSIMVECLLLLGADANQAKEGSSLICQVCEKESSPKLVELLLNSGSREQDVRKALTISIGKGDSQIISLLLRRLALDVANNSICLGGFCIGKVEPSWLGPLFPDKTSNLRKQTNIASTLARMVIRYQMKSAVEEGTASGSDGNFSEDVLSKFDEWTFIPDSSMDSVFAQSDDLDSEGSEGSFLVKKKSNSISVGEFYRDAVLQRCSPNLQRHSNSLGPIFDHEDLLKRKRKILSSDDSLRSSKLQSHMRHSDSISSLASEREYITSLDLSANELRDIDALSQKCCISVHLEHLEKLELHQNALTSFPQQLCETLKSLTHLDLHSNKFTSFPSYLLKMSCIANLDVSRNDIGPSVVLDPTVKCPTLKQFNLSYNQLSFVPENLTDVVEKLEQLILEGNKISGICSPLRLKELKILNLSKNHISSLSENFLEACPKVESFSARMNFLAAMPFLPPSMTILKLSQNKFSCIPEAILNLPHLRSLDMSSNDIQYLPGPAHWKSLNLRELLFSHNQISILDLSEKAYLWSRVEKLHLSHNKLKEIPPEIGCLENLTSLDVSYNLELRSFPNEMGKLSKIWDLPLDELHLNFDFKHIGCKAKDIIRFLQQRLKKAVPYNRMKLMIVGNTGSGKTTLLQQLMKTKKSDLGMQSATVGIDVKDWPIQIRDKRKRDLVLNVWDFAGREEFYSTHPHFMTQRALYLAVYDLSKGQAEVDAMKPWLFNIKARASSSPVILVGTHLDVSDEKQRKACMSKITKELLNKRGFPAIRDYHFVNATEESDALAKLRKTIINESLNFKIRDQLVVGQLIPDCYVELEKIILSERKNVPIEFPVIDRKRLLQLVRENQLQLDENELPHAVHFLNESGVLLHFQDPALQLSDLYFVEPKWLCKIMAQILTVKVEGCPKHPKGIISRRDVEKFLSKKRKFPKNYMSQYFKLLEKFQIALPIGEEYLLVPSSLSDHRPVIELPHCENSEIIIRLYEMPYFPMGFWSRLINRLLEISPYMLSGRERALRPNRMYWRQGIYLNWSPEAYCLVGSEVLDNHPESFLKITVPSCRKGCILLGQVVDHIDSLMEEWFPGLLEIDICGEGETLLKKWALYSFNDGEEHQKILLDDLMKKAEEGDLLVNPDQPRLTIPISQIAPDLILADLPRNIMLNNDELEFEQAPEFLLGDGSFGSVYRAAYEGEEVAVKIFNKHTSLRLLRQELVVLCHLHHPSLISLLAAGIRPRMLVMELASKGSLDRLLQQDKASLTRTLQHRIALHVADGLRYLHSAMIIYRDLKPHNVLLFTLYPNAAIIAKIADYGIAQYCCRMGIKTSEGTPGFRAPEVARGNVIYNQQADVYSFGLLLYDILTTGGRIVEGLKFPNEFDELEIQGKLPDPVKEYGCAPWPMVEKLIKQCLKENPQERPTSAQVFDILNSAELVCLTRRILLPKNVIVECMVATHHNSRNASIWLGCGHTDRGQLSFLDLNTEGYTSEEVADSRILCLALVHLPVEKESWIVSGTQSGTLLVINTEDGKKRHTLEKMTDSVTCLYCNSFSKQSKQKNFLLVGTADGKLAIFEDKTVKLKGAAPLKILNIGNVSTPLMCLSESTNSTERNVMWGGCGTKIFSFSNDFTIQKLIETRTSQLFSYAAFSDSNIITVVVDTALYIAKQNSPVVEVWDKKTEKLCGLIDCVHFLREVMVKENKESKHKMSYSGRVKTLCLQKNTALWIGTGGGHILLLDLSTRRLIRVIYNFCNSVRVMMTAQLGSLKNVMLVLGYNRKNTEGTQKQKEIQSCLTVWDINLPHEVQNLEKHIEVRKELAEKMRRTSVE

Tests used:
[1] = target: V5-tagged Rab8a (human) (UniProt P61006); experiment: co-IP; reciprocal: HEK-293 co-transfected with myc-LRRK2 and V5-Rab; lysate (50 mM Tris-HCl pH 7.5, 0.5% TX-100, 150 mM NaCl, 0.5 mM EGTA) immunoprecipitated with anti-V5 on protein-G-agarose overnight at 4°C; blotted with anti-myc
[2] = target: T1, V5-tagged Rab3c (human) (UniProt Q96E17); experiment: as above
T1 sequence: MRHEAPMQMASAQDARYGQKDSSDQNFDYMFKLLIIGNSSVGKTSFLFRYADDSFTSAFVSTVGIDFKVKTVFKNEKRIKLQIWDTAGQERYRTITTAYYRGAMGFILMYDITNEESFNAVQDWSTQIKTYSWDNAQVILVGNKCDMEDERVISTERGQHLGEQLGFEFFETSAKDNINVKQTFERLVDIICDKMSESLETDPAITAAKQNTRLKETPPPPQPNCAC

[3] = target: V5-tagged Rab1a (human) (UniProt P62820); experiment: as above
[4] = target: V5-tagged Rab35 (human) (UniProt Q15286); experiment: as above
[5] = target: Myc-tagged LRRK2 (leucine-rich repeat kinase 2), wild-type (UniProt Q5S007); experiment: co-IP; HEK-293 co-transfected with myc-LRRK2 and V5-Rab; lysate (50 mM Tris-HCl pH 7.5, 0.5% TX-100, 150 mM NaCl, 0.5 mM EGTA) immunoprecipitated with anti-myc on protein-G-agarose overnight at 4°C; blotted with anti-V5

Row | Substance | binding [1] | binding [2] | binding [3] | binding [4] | binding [5]
1 | Myc-tagged LRRK2 (leucine-rich repeat kinase 2), wild-type (from UniProt Q5S007 1-2527) (enzyme) | binds | binds | binds | binds | –
2 | V5-tagged Rab1a (from UniProt P62820 1-205) | – | – | – | – | binds
3 | V5-tagged Rab8a (from UniProt P61006 1-207) | – | – | – | – | binds
4 | V5-tagged Rab35 (from UniProt Q15286 1-201) | – | – | – | – | binds
